# According to PubChem BioAssay AID1671190 (National Center for Advancing Translational Sciences (NCATS), 2021):
# By UniProt entry, the sequences of proteins in these tests, tags left out. Where a name states a change or a piece, a line headed by the entry shows the natural chain unless it says otherwise.
# UniProt P18054: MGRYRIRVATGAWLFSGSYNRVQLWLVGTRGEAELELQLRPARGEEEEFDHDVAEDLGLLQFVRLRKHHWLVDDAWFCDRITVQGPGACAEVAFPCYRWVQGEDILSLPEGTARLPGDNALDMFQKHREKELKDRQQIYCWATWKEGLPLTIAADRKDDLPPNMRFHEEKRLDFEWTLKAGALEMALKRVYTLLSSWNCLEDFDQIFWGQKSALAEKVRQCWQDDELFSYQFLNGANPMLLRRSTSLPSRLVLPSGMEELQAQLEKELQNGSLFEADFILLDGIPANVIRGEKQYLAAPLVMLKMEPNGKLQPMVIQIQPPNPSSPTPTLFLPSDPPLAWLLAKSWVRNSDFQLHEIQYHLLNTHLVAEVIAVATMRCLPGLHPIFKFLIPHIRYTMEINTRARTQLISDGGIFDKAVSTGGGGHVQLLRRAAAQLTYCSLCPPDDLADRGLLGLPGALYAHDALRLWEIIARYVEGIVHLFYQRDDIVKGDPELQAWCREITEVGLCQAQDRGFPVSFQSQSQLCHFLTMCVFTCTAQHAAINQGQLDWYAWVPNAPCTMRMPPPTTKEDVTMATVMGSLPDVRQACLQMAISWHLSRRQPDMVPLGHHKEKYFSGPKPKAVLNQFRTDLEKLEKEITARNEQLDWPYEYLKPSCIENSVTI
# The whole screen tested about 580,000 compounds, of which about 6,100 (1.1%) were called active. The inconclusive results got no clear call from the source; some entries with a clear call stand among them for comparison. Calls follow the shape of the dose curve; as a rule, active = well fitted inhibition curve with a large enough effect; inconclusive = small, poorly fitted or top-dose-only effect, or another doubt; inactive = no such curve, though single readings can be large or run the other way. Where the call is inconclusive, the potency comes from a doubtful curve fit.
# Biological target: Polyunsaturated fatty acid lipoxygenase ALOX12 (Homo sapiens) (UniProt P18054)
# Assay: Primary qHTS assay for inhibitors of human arachidonate 12S-lipoxygenase (ALOX12): Round 2
# Details: purified 12hLO, xylenol orange hydroperoxide absorbance; activity change, negative = inhibition: at 108 µM (top of the series) unless noted
# Outline: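 Hydroperoxide product was detected by ferrous iron/xylenol orange as the 573 to 405 nm absorbance ratio. Arachidonic acid at 40 uM (final) was turned over for 30 min at room temperature by 150 nM human 12hLO, pH 7.0 Hepes buffer, after 15 min compound preincubation.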
# % is scaled to controls: 0 for no effect and ±100 for the full control effect; potency is read from the fitted curve at half-maximal effect.
SMILES,Potency,"activity change, negative = inhibition"
CCCn1nc(C(=O)Nc2ccc(OCCN(CC)CC)cc2)c2ccccc2c1=O,inactive,–
Nc1nc(N)nc(-c2ccccc2-c2nc(N)nc(N)n2)n1,"inconclusive: 35.5 µM [inhibitor, single point]",–
CCOC(=O)C1=C(C)N=C2SC=C(CC(=O)N3CCCC3)N2C1c1cc(C)ccc1C (stereo not drawn),inactive,–
CC1(C(=O)NS(=O)(=O)c2ccccc2)CCN1C(=O)COc1ccc(Cl)cc1 (stereo not drawn),"inconclusive: 100 µM [inhibitor, partial curve, poor fit]",–
Cc1ccc(-c2nonc2NC(=O)COc2cccc(C)c2)cc1,inactive,–
CCOC(=O)C1(C)/C(=N/Nc2ccccc2Cl)C(=O)C(=O)N1c1ccccc1 (stereo not drawn),"inconclusive: 50.1 µM [inhibitor, partial curve, poor fit]",–
COc1cccc(NC(=O)CSc2nc3ccccc3n2C)c1,inactive,–
CN(C)CCCNC(=O)CC1C[C@H](C(=O)N2CCCCC2)[C@@]2(CCc3ccccc3)c3[nH]c4ccccc4c3CCN2C1=O (stereo partly drawn),"inconclusive: 39.8 µM [inhibitor, partial curve, poor fit]",–
N#CCC(=O)N/N=C/c1cccc(Oc2ccccc2)c1,inactive,–
O=S(=O)(c1ccc2c(c1)OCCO2)c1nc(-c2ccccc2)oc1NCCN1CCOCC1,active: 25.1 µM,–
O=C(c1ccccc1Cl)[C@@H]1[C@@H]2CCCN2[C@]2(C(=O)Nc3ccccc32)[C@@]12C(=O)Nc1ccccc12,"inconclusive: 112 µM [inhibitor, single point]",–
Cc1cccc(NC(=O)CSCc2cc(=O)n3ccsc3n2)c1C,"inconclusive: 3.16 µM [inhibitor, full curve]",–
CCCCNc1c(CCc2ccccc2)nc2nc(C)cc(C)n12,inactive,–
CCOc1ccc(NC(=O)c2c(NC(=O)Cc3ccccc3)sc3c2CCC(C)C3)cc1 (stereo not drawn),"inconclusive: 126 µM [inhibitor, partial curve, poor fit]",–
CC1(C(=O)NS(=O)(=O)c2cccc(OC(F)F)c2)CCN1C(=O)c1ccccc1 (stereo not drawn),"inconclusive: 35.5 µM [inhibitor, partial curve, poor fit]",–
CC1(C)CC(C(CCN(Cc2ccccc2)C(=O)c2ccco2)c2ccc(F)cc2)CCO1 (stereo not drawn),"inconclusive: 50.1 µM [inhibitor, partial curve, poor fit]",–
O=C(CSc1nc2ccc(S(=O)(=O)N3CCOCC3)cc2[nH]1)N1CCOCC1,"inconclusive: 3.16 µM [inhibitor, full curve, poor fit]",–
Clc1ccc(C2Cn3nnc(-c4nc(-c5ccsc5)no4)c3CO2)cc1 (stereo not drawn),inactive,–
CCOc1ccc(C(=O)NCC(c2ccc3c(c2)OCO3)N2CCN(c3ccccc3F)CC2)cc1 (stereo not drawn),"inconclusive: 56.2 µM [inhibitor, partial curve, poor fit]",–
Cc1ccc(NC(=O)Cn2c(=O)n(Cc3ccco3)c(=O)c3ccc(C(=O)NC4CCCC4)cc32)c(C)c1,inactive,–
C=CCN1C(=O)/C(=C2/Sc3ccccc3N2C)SC1=Nc1ccccc1C,"inconclusive: 112 µM [inhibitor, partial curve, poor fit]",–
Cn1nc(C(F)(F)F)c(C(=O)Nc2ccc(F)cc2F)c1Sc1ccc(Cl)cc1,"inconclusive: 100 µM [inhibitor, single point]",–
CC(=O)NS(=O)(=O)c1ccc(NC(=S)NC(=O)C2CCC2)cc1,"inconclusive: 112 µM [inhibitor, single point]",–

SMILES,Potency,"activity change, negative = inhibition"
Cn1cc(CN2C[C@H](C(=O)Nc3cccc(F)c3)C[C@H]2c2cccc(C(F)(F)F)c2)cn1,"inconclusive: 17.8 µM [inhibitor, full curve, poor fit]",–
Cc1ccc(C(CNC(=O)c2ccc(C(C)(C)C)cc2)N2CCCC2)cc1 (stereo not drawn),"inconclusive: 44.7 µM [inhibitor, partial curve, poor fit]",–
CCOC(=O)CNC(=O)Nc1c(-c2cccnc2)[nH]c2ccccc12,"inconclusive: 112 µM [inhibitor, single point]",–
CCOc1ccc(NC(=O)c2c(NCc3ccc(C)o3)sc3c2CCC(C)C3)cc1 (stereo not drawn),inactive,–
O=C(OCc1ccc(Br)cc1)c1ccncc1,inactive,–
Cc1nn2c(c1-c1ccccc1[S+](C)(=O)[O-])N(CCCc1ccccc1)CCC2,"inconclusive: 56.2 µM [inhibitor, single point]",–
O=C(N/N=C/c1ccc(OCCCOc2ccccc2Cl)cc1)c1ccccc1,inactive,–
CCCCc1c(C(=O)O)cc(OC)cc1C(=O)O,inactive,–
O=C(NCCC1CCN(Cc2ccccc2)CC1)C1CCN(c2cnn(Cc3ccccc3)c(=O)c2)C1 (stereo not drawn),"inconclusive: 8.91 µM [inhibitor, partial curve, poor fit]",–
Cc1ccc(C2=NO[C@@](CC(=O)O)(C(=O)Nc3c(C)cccc3C)C2)cc1,inactive,–
CN(C)C(=O)c1ccc(Nc2cc3c(cn2)cc(-c2ccc(C(=O)N(C)C)cc2)n3Cc2ccccc2)cc1,inactive,–
COc1ccc(-c2noc(CNC(=O)COc3cc(C)cc(C)c3C)n2)cc1,inactive,–
CCOC(=O)c1c(S(=O)(=O)Nc2ccc(C)cn2)c(C)n(C)c1C,inactive,–
Cc1n[nH]c(=S)n1-c1ccc(Cl)cc1,"inconclusive: 31.6 µM [inhibitor, single point]",–
CCCN1C(=O)C(Cc2nc3ccccc3c(=O)n2-c2ccccc2)c2cc(C)ccc21 (stereo not drawn),"inconclusive: 79.4 µM [inhibitor, partial curve, poor fit]",–
CC(C)CN(Cc1c(O)ccc2ccccc12)CC(C)C,active: 39.8 µM,–
COc1cc(NC(=O)CN2C(=O)COc3ccc(S(=O)(=O)N4CCCCC4)cc32)cc(OC)c1,inactive,–
COC(=O)CCC(=O)Nc1ccc(NC(=O)CCC(=O)OC)cc1,inactive,–
CCNc1c(NC(=O)Nc2cc(C)cc(C)c2)c(=O)oc2ccccc12,"inconclusive: 50.1 µM [inhibitor, partial curve, poor fit]",–
O=C(COc1ccccc1)NC(=S)Nc1cccc(NC(=O)c2ccccc2Cl)c1,"inconclusive: 20 µM [inhibitor, full curve]",–
C=CCN(CC=C)Cc1cc(=O)oc2cc(OC)c(Cl)cc12,"inconclusive: 39.8 µM [inhibitor, partial curve, poor fit]",–
CCOc1ccc(NCc2cccn2-c2nnc(N3CCC(C(=O)NCCCN4CCCCC4)CC3)s2)cc1,inactive,–
Cc1nc(-c2ccc(S(=O)(=O)Nc3ccc(F)cc3C)cc2)co1,inactive,–

SMILES,Potency,"activity change, negative = inhibition"
COC(=O)C1[C@H]2[C@@H]3[C@H](c4ccc(C)o4)Nc4ccc(Cl)cc4[C@@H]3N(C(=O)OC(C)(C)C)[C@@H]12 (stereo partly drawn),"inconclusive: 14.1 µM [inhibitor, full curve, poor fit]",–
Cc1c(C=O)c2ccccc2n1CCOc1ccccc1F,inactive,–
O=C(NCC1(COc2cccnc2)C[C@@H](O)[C@@H](O)C1)c1cnccn1 (stereo partly drawn),inactive,–
O=C(c1ccco1)N(Cc1cccs1)C1CCS(=O)(=O)C1 (stereo not drawn),inactive,–
Cc1occc1-c1nnc(SCC(=O)c2ccccc2)n1CC1CCCO1 (stereo not drawn),"inconclusive: 44.7 µM [inhibitor, partial curve, poor fit]",–
COc1cccc(OC)c1C(=O)Nc1ccc(S(=O)(=O)N2CCCCC2)cc1,"inconclusive: 44.7 µM [inhibitor, partial curve, poor fit]",–
COc1cc(/C=C/C(=O)OCC(=O)N(C2=CCCCC2)C2CC2)ccc1OC(F)F,inactive,–
O=C(COc1cc(O)c2c(=O)cc(-c3ccccc3)oc2c1)NCC(O)CO (stereo not drawn),inactive,–
O=C(O)/C=C\C(=O)Nc1ccc(OC(F)F)cc1,"inconclusive: 112 µM [inhibitor, single point]",–
Cc1[nH]c2ccccc2c1/C=C(\C#N)C(=O)NCc1ccccc1,"inconclusive: 112 µM [inhibitor, single point]",–
N#Cc1ccc(Oc2ccc(-c3ccc(Oc4ccc(C#N)cc4)cc3)cc2)cc1,"inconclusive: 79.4 µM [inhibitor, single point]",–
NC(=O)c1ccsc1NC(=O)COC(=O)c1cc(Cl)ccc1Cl,inactive,–
O=c1[nH]c2ccccc2nc1Cc1ccc([N+](=O)[O-])cc1,"inconclusive: 28.2 µM [inhibitor, partial curve]",–
O=C(O)CC1(CC(=O)N2CC[C@H]3NC(=O)N(c4ccc(Oc5ccccc5)cc4)C(=O)[C@H]32)CCCC1,"inconclusive: 50.1 µM [inhibitor, partial curve, poor fit]",–
COc1ccc(CNc2ccnc(-c3cccc(NS(C)(=O)=O)c3)n2)c(OC)c1,"inconclusive: 39.8 µM [inhibitor, partial curve]",–
CCOC(=O)/C=C/C(=O)Nc1cc(S(=O)(=O)Nc2ccc(OC)cc2)ccc1N1CCOCC1,–,inconclusive: -30.5% [inhibitor]
COC(=O)c1ccc(CO/N=C/c2ccccc2Cl)cc1,inactive,–
N#Cc1cccc(C(=O)Nc2ccc([C@H]3OCC(=O)N(Cc4ccc(F)cc4)[C@@H]3CO)cc2)c1,inactive,–
Cc1c(Cl)cccc1NC(=O)Cn1c(C)cc2nc3n(c(=O)c21)CCCCC3,"inconclusive: 79.4 µM [inhibitor, single point]",–
COc1cccc(NC(=O)Cn2c(=O)n(-c3ccc(Cl)cc3)c(=O)c3sc4ccccc4c32)c1,"inconclusive: 100 µM [inhibitor, single point]",–
Cc1ccc(/C=N/Nc2nc(C)cc(C)n2)cc1,"inconclusive: 17.8 µM [inhibitor, single point]",–
O=C(/C=C/c1ccc(F)cc1)NC(=S)Nc1ccccc1,"inconclusive: 31.6 µM [inhibitor, single point]",–
